From PubChem BioAssay AID1347423 (Functional Genomics Laboratory (NCATS/FGL), 2020)
Screen size: about 52,000 sequences; about 210 (0.4%) were called active.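 How the source made its calls: active means gene whose silencing raises cell survival under the drug, median off-target-corrected z-score across its silencing RNAs 2 or more; inactive means the rest.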 This is one part of the list.

Assay: Resistance to Poly (ADP-Ribose) Polymerase inhibitor: Gene Identification via Genome-wide siRNA Screen
Conditions: mouse BRCA2 R2336H ES cells, olaparib, CellTiter-Glo viability; hits give high values
Summary of the method: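 Mouse BRCA2 R2336H ES cells were reverse-transfected with siRNA (20 nM final), treated at 48 h with 500 nM olaparib, and read by CellTiter-Glo after 72 h. Scores: MAD-based z per siRNA, median per gene, seed off-target correction.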

Sequence | z-score
GGCUUAGUAUGUUGUAUUCTT against 2010107G23Rik | inactive: 0.165
CUUUAGACUUCAUGCUCUCTT against Olfr128 | inactive: 0.719
GCAUUUGAUGAAGACUCGATT against Barx2 | inactive: 0.0506
GCAAGUCAAGUGGGCCAAATT against G430095P16Rik | inactive: 0.121
CCAAGGUGCUGUUGGUAUATT against Ssr2 | inactive: -0.217
GGCAACAUAGUAAUUGUGGTT against Olfr1223 | inactive: -0.067
GGAAGAUGAGUUUCAUAAUTT against Htra3 | inactive: 0.765
GGUAUACGCUCUCGUAUUGTT against Rbbp9 | inactive: -0.23
GCCCAGAAAUAUAAUCAAATT against Bub1 | inactive: 0.0523
GGCAUUCACUAACCAGUUATT against Nfyb | inactive: -0.779
GGAAUUGGUCUAUAUGCGUTT against Il2ra | inactive: 0.38
CCUGGUGUUUGUCUGUACUTT against Cxcr6 | inactive: 0.449
GGAGAUGGCCGACUUCUAUTT against 2810002N01Rik | inactive: 0.926
GGCAAAGCACCUUUAUCUGTT against G430095P16Rik | inactive: 0.216
GGUGCGUAACUUAUUUUUATT against 2610312E17Rik | inactive: 0.37
GGAAGAAGACAGCAUGAAGTT against Mpp4 | inactive: 0.506
GGAAAACCUUCAGUCUUUGTT against Slc29a2 | inactive: -0.0717
GGCCCUAGAUAUUGAUUUUTT against Rbp2 | inactive: 0.322
GGUUACCAUGUGAAGCAGGTT against Tnfrsf14 | inactive: -0.79
GGAAGAGGAGGUGACAUACTT against 4932702D22Rik | inactive: 1.06
GGUUCUCCAAACUCUGCCATT against Arhgap1 | inactive: -2.08
GGCUGAAAGGUCAGAUUCCTT against Vbp1 | inactive: 0.405
GCAAAACAUUUCCUGUCUGTT against Zfp316 | inactive: -0.443
GGCUUUUUGUUAAGGCAGCTT against BC002199 | inactive: 2.54
CCUUAGAGAGCUACGCCAUTT against Mrgprh | inactive: 1.24
GACAGGAAGUUGAUGAAUUTT against Raet1a | inactive: -0.444

Reprinted at random: two entries already listed, in no set order.
Sequence | z-score
GCAAGUCAAGUGGGCCAAATT against G430095P16Rik | inactive: 0.121
GGAAGAAGACAGCAUGAAGTT against Mpp4 | inactive: 0.506

Remaining list, next part

Sequence | z-score
CCACACUGUAUAAUACAAUTT against Fndc6 | inactive: -2.27
GGCAAAAGGAAGAGGACGATT against Brd4 | inactive: 0.275
GGGUAAUGACAUUAGCAGUTT against Pbp | inactive: -0.17
GGUUGAUUAGAAUUGAUGCTT against 5830467P10Rik | inactive: -0.223
GGAGAAGUCAUUGUUUUUGTT against Klhdc2 | inactive: 0.688
GCUCAGUAUGUUUGGGAGUTT against 5330416C01Rik | inactive: -1.02
CCUGACAAGACAUUUCAAATT against Dusp22 | inactive: -0.127
GGGACUGAAAUCUAUUUUGTT against Zfp217 | inactive: 0.967
GGGAAAUUUGUCCUGUUAATT against Hibadh | inactive: -1.14
GGCUUUUUUGCCAUUGCUATT against Wnt9b | inactive: -0.507
GGCACGAUAUUAUUUUCAGTT against Lrfn5 | inactive: -0.418
GGACCGAUAUAACCUACCCTT against Rps4x | inactive: -2.4
GGAUAAAAUUGCUUUACUGTT against 3110031B13Rik | inactive: -0.0332
GCCUGGCUUGUAACUUCACTT against 1700034H15Rik | inactive: 0.723
GGUCUUUGCCCUACAAACATT against Fer1l3 | inactive: 0.136
CUGUAAGGCGGAUAAGACCTT against 2610017I09Rik | inactive: -0.52
CCGGGUAGUGAGUAAGCUUTT against Neu2 | inactive: 0.304
GGAUGGCAGCUUUGACCUUTT against Cdc42ep2 | inactive: 0.88
GCAAUGAACCCUAGAAUUATT against Col4a1 | inactive: 0.968
GGGUCUAUACCAUCCGGGATT against Mamdc1 | inactive: -0.412
GGGUAUUGGUUUUAGAGCATT against Emd | inactive: 0.826
GGUGUAAGAGCUUUGGCCUTT against LOC432436 | inactive: 0.478
GGCUUGGUAGCCAUCCUCATT against Lrrc27 | inactive: 0.453
GCUUUCUCUUAUGGAUCUATT against Olfr700 | inactive: -1.01
GGAAUGUUCACUGACAAAGTT against BC023488 | inactive: 0.329
GAAUAAAUCAGACCACAAATT against 1810020D17Rik | inactive: 1.33

Sequence | z-score
GGGCCUGUGAAACUUGUGCTT against Mrps16 | inactive: -1.24
GGAUAAGACUGUUGUCAGATT against Prlpc1 | inactive: -2.91
GGAAGUGAUUGCCAUCAAATT against Sh3bp4 | inactive: 1.22
GGAGAUCCGUCGAAUCAACTT against Anxa4 | inactive: 1.7
GCUUAAUCAGCUAAUCAAUTT against Sult1c2 | inactive: -0.0973
GGUAGUUGUGCCAGAAAAATT against 4931406P16Rik | inactive: 0.0951
GCAUACCAUCUUAUUUUGGTT against Sptlc1 | inactive: 0.582
GGGCUACGACAGAAUCAUCTT against C130036J11 | inactive: 2.27
GGCCAAGUGAUAGAGUUCATT against Crygd | inactive: 0.491
GCCCUUGAGUGAAAGAGAUTT against Clspn | inactive: -0.948
GCCCAAAAAAGCUCAGAGUTT against C6.1A | inactive: -0.234
GGUUCAACAUAUCCAUAGCTT against V1re12 | inactive: 0.102
GGAGCUGAUGUAGCCUUCATT against Yif1 | inactive: -1.82
GGCAUCCAAAAUUUUCAACTT against Nxph3 | inactive: 1.31
GGCGGACAUCACUUAUGAGTT against Gopc | inactive: -1.1
GGCAGCGAUUGACAAAAUGTT against Eefsec | inactive: 0.222
CCACCAUCAUGAGAGAGGATT against Olfr350 | inactive: -0.358
GGUGCUCUGCCAAACUGUUTT against Mmaa | inactive: -0.527
GGCUCCUCAUUACCUCUACTT against 1110014J01Rik | inactive: -2.08
CGCUCAUGAACUUGUACUUTT against Tm7sf1 | inactive: -0.709
CCGACCCAAUUAAUGAUCATT against 2010305C02Rik | inactive: -1.85
CCUGUGAGUACCAGCCAACTT against Gm691 | inactive: 0.435
GCCAUGGAGCUCAUUUGGATT against Pcnt1 | inactive: -0.798
GGGUACCUACAUAGACAAGTT against Rps11 | inactive: -1.87
GGAACUACUACUCACCUAUTT against Trhr | inactive: -2.12
CCCGAAGUCCUGUUUUGCATT against Olig3 | inactive: 1.89

Sequence | z-score
GGAAAACGGAAAAGACAUCTT against Calr3 | inactive: 0.37
GCCACGAUGUGUGGAAAUUTT against Cfh | inactive: -1.72
GGCAGAAGAUUGCUUCAGATT against Gm424 | inactive: 0.232
GGACAAGAAGCCACUGACATT against Arrb1 | inactive: 1
GGUUUUUCUUCUGCUGGUGTT against Olfr1256 | inactive: 1.52
GAUGGCUUGUGAAAUACCATT against Hat1 | inactive: -0.776
GGUUGCCAAUGACACUCGGTT against Als2cr3 | inactive: 1.76
GGAUCGUAGAACACCCUUCTT against Robo2 | inactive: 0.615
GGGUCAGUUUUUACAUUUUTT against Cxcl14 | inactive: -0.976
GGUACAGUUACGGUCAAAUTT against MGC67168 | inactive: 0.645
GGCAAACAUCUGUAUCUAUTT against Golph3 | inactive: 0.326
GGCGGAAGCCAUCUAACUUTT against 9330140K16Rik | inactive: 1.02
CCUCUAGUUGUCCCUGAAATT against F12 | inactive: 0.18
CCACUUCUACAUACUUAAUTT against Plau | inactive: 0.625
GCUCUCAGAUGACAUCACUTT against Supt5h | inactive: -1.98
GCCACACAGUGUGAUCCAATT against Nrip2 | inactive: -1.71
CGGGCAAUGUCAGAUUGUGTT against V1rg6 | inactive: -2.98
CGCCUUGCCAAUAAGUGAATT against Ostf1 | inactive: -0.236
GGCUUUGAGAGUUUGUCACTT against 2410004B18Rik | inactive: 1.29
GGUCUCUGUACUUUGACUGTT against Cldn19 | inactive: 1.26
GGAAAAUGUUUUACCAAUGTT against 4930470D19Rik | inactive: 0.0823
GGACCUUUUUAUCCAACGCTT against 2400002F11Rik | inactive: 0.528
GGAGCUGCUAUGUACACAUTT against Falz | inactive: -0.193
GGCAUUGAGAUGCUGGAAATT against Trappc4 | inactive: 1.54
GGAGGUAUCAGGUACCAACTT against Cpne6 | inactive: -1.36
CCAGUUUAAGAGGAUUAUCTT against Ttc3 | inactive: 0.276

A second format for some results above.
GGCAAAAGGAAGAGGACGATT against Brd4
  z-score: inactive: 0.275
GGGUAAUGACAUUAGCAGUTT against Pbp
  z-score: inactive: -0.17
GGUUGAUUAGAAUUGAUGCTT against 5830467P10Rik
  z-score: inactive: -0.223
